± gives the standard deviation of the averaged measurements. Small differences around the control level are noise.
Legend:
Assay in all cases: level (log10 ratio to DMSO vehicle control); higher = higher biomarker level / cell amount than vehicle control
[1] = compound: OCC(F)(F)C(F)(F)C(F)(F)C(F)(F)C(F)(F)C(F)(F)CO [1H,1H,8H,8H-Perfluorooctane-1,8-diol] (in DMSO); details: 2200 nM
Method: (§1)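 BioMAP Diversity Plus panel of 12 human primary cell co-culture systems (3C, 4H, LPS, SAg, BT, BF4T, BE3C, CASM3C, HDF3CGF, KF3CT, MyoF, Mphg). Compounds were added 1 h before stimulation and left for 24 h (MyoF 48 h; BT 72 h for soluble read-outs or 6 d for IgG). Biomarkers were read by ELISA, cytotoxicity by SRB, PBMC viability and proliferation by Alamar Blue. Each well value was divided by the mean of 8 DMSO control wells on the same plate and log10 transformed; duplicate blinded samples were tested at 4 concentrations.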

[2] = compound: FC(F)(F)C(F)(F)C(F)(F)C(F)(F)CCI [1H,1H,2H,2H-Perfluorohexyl iodide] (in DMSO); details: 2200 nM
Method: as §1

[3] = compound: OCC(F)(F)C(F)(F)C(F)(F)C(F)(F)C(F)(F)C(F)(F)F [6:1 Fluorotelomer alcohol] (in DMSO); details: 2200 nM
Method: as §1

[4] = compound: OCC(F)(F)OC(F)(F)C(F)(F)OC(F)(F)CO [1H,1H,8H,8H-Perfluoro-3,6-dioxaoctane-1,8-diol] (in DMSO); details: 2200 nM
Method: as §1

Hexafluoroglutaric acid = compound: O=C(O)C(F)(F)C(F)(F)C(F)(F)C(=O)O [Hexafluoroglutaric acid] (in DMSO)
Method: as §1

[5] = compound: FC(F)(F)C(F)(F)CNCC(F)(F)C(F)(F)F [Bis(1H,1H-perfluoropropyl)amine] (in DMSO); details: 2200 nM
Method: as §1

[6] = compound: O=C(O)C(F)(F)C(F)(F)C(F)(F)OC(F)(C(F)(F)F)C(F)(F)F [Perfluoro-4-isopropoxybutanoic acid] (in DMSO); details: 2200 nM
Method: as §1

[7] = compound: C=C(C)C(=O)OCCC(F)(F)C(F)(F)C(F)(F)C(F)(F)C(F)(F)C(F)(F)F [6:2 Fluorotelomer methacrylate] (in DMSO); details: 2200 nM
Method: as §1

[8] = compound: O=C(O)CCC(F)(F)C(F)(F)C(F)(F)F [3:3 Fluorotelomer carboxylic acid] (in DMSO); details: 2200 nM
Method: as §1

[9] = compound: O=C(O)C(F)(OC(F)(F)C(F)(F)C(F)(F)F)C(F)(F)F [Ammonium perfluoro-2-methyl-3-oxahexanoate] (in Water)
Method: as §1

[10] = compound: OCC(F)(F)C(F)(F)C(F)(F)C(F)F [1H,1H,5H-Perfluoropentanol] (in DMSO); details: 2200 nM
Method: as §1

[11] = compound: CNS(=O)(=O)C(F)(F)C(F)(F)C(F)(F)C(F)(F)C(F)(F)C(F)(F)C(F)(F)C(F)(F)F [N-Methylperfluorooctanesulfonamide] (in DMSO); details: 2200 nM
Method: as §1

[12] = compound: OCCCC(F)(F)C(F)(F)C(F)(F)C(F)(F)C(F)(F)C(F)(F)C(F)(F)C(F)(F)F [3-(Perfluorooctyl)propanol] (in DMSO); details: 2200 nM
Method: as §1

[13] = compound: O=C(O)C(F)(OC(F)(F)C(F)(OC(F)(F)C(F)(OC(F)(F)C(F)(F)C(F)(F)F)C(F)(F)F)C(F)(F)F)C(F)(F)F [Perfluoro-(2,5,8-trimethyl-3,6,9-trioxadodecanoic)acid] (in DMSO); details: 370 nM
Method: as §1

[14] = compound: O=S(=O)(O)C(F)(F)C(F)(F)C(F)(F)C(F)(F)F [Perfluorobutanesulfonic acid] (in DMSO)
Method: as §1

Perfluorohexanoic acid = compound: O=C(O)C(F)(F)C(F)(F)C(F)(F)C(F)(F)C(F)(F)F [Perfluorohexanoic acid] (in DMSO)
Method: as §1

[15] = compound: FC(F)(F)COC(OCC(F)(F)F)OCC(F)(F)F [tris(Trifluoroethoxy)methane] (in DMSO); details: 2200 nM
Method: as §1

Test System	level (log10) [1]	level (log10) [2]	level (log10) [3]	level (log10) [4]	level (log10) (Hexafluoroglutaric acid; 2200 nM)	level (log10) (Hexafluoroglutaric acid; 6700 nM)	level (log10) (Hexafluoroglutaric acid; 20000 nM)	level (log10) (Hexafluoroglutaric acid; 60000 nM)	level (log10) [5]	level (log10) [6]	level (log10) [7]	level (log10) [8]	level (log10) ([9]; 2200 nM)	level (log10) ([9]; 6700 nM)	level (log10) ([9]; 20000 nM)	level (log10) ([9]; 60000 nM)	level (log10) [10]	level (log10) [11]	level (log10) [12]	level (log10) [13]	level (log10) ([14]; 2200 nM)	level (log10) ([14]; 6700 nM)	level (log10) ([14]; 20000 nM)	level (log10) ([14]; 60000 nM)	level (log10) (Perfluorohexanoic acid; 2200 nM)	level (log10) (Perfluorohexanoic acid; 6700 nM)	level (log10) (Perfluorohexanoic acid; 20000 nM)	level (log10) (Perfluorohexanoic acid; 60000 nM)	level (log10) [15]
MyoF:SRB	-0.004 ± 0.0042	0.008 ± 0.0085	0.01 ± 0.017	-0.0015 ± 0.013	0 ± 0.0042	0.0015 ± 0.00071	-0.002 ± 0.0085	-0.0045 ± 0.0092	0.001 ± 0.018	0.0065 ± 0.013	0.0015 ± 0.0092	0.006 ± 0.011	0.01 ± 0.017	0.0095 ± 0.0035	0.013 ± 0.013	0.0085 ± 0.0035	0.008 ± 0.0085	0.0125 ± 0.015	0.0035 ± 0.013	0.0075 ± 0.029	-0.002 ± 0.0014	-0.002 ± 0.0071	-0.0035 ± 0.00071	0.0085 ± 0.00071	-0.013 ± 0.0028	0.009 ± 0.0014	0.008 ± 0.0085	0.007 ± 0.0057	0.003 ± 0.0085
MyoF:TIMP-1	0.001 ± 0.064	0.0395 ± 0.052	0.022 ± 0.033	-0.0045 ± 0.029	-0.0215 ± 0.0064	0.001 ± 0.014	-0.0545 ± 0.053	-0.0205 ± 0.0035	-0.0265 ± 0.013	0.0375 ± 0.044	-0.0135 ± 0.052	-0.0405 ± 0.03	-0.0675 ± 0.056	-0.0395 ± 0.0092	-0.0635 ± 0.015	-0.068 ± 0.0028	0.03 ± 0.0071	0.022 ± 0.045	0 ± 0.021	0.0025 ± 0.0064	-0.0135 ± 0.029	0.012 ± 0.014	0.009 ± 0.0085	0.0205 ± 0.00071	0.0175 ± 0.011	0.0085 ± 0.0021	-0.006 ± 0.0042	0.0245 ± 0.0064	-0.0675 ± 0.044
MyoF:alpha-SM Actin	0.0105 ± 0.00071	0.019 ± 0.0071	0.0225 ± 0.015	-0.003 ± 0.0042	-0.0185 ± 0.018	-0.008 ± 0.044	-0.0065 ± 0.029	0.033 ± 0.017	0.0235 ± 0.029	0.0045 ± 0.012	-0.001	0.0025 ± 0.0021	0.0105 ± 0.005	0.001 ± 0.011	0.0005 ± 0.022	-0.0035 ± 0.0035	-0.039 ± 0.059	0.004 ± 0.025	0.0075 ± 0.015	0.021 ± 0.047	0.012	-0.016 ± 0.0099	-0.0265 ± 0.0078	-0.0195 ± 0.005	0.0335 ± 0.011	-0.021 ± 0.016	0.011 ± 0.0099	0.013 ± 0.037	0.015 ± 0.021
MyoF:bFGF	0.0055 ± 0.0092	0.0025 ± 0.005	-0.005 ± 0.0042	0.014 ± 0.017	0.006 ± 0.023	0.01 ± 0.014	0.0105 ± 0.013	0.017 ± 0.0014	-0.0105 ± 0.019	0.001 ± 0.0071	-0.0015 ± 0.015	0.006 ± 0.013	0.001 ± 0.013	0.017 ± 0.0099	0.006 ± 0.0014	0.0005 ± 0.0092	-0.016 ± 0.0042	0.014 ± 0.0042	0.0065 ± 0.0035	0.007 ± 0.023	0.017 ± 0.0085	0.0065 ± 0.013	0.0105 ± 0.018	-0.0065 ± 0.0064	0.0055 ± 0.0021	0.0005 ± 0.005	-0.0105 ± 0.019	0.0005 ± 0.021	-0.0095 ± 0.0092
SAg:CCL2/MCP-1	0.007 ± 0.033	-0.0005 ± 0.013	0.005 ± 0.04	0.025 ± 0.023	-0.0485 ± 0.015	-0.028 ± 0.0071	-0.0205 ± 0.0035	-0.0205 ± 0.016	0.0075 ± 0.0064	-0.0095 ± 0.026	0.0145 ± 0.094	0.0045 ± 0.015	0.0345 ± 0.057	-0.0245 ± 0.04	0.004 ± 0.017	0.0305 ± 0.059	0.0175 ± 0.0064	-0.0165 ± 0.018	0.0005 ± 0.0021	0.0215 ± 0.0092	-0.0055 ± 0.05	-0.0225 ± 0.0092	-0.0075 ± 0.0064	0.0185 ± 0.033	-0.001 ± 0.047	-0.01 ± 0.0057	-0.0255 ± 0.0078	0.0135 ± 0.018	-0.0045 ± 0.016
SAg:CD38	0 ± 0.027	-0.0045 ± 0.019	0.0335 ± 0.05	0.0215 ± 0.018	0.002 ± 0.021	-0.002 ± 0.0071	-0.0075 ± 0.00071	0.0075 ± 0.021	0.0005 ± 0.021	-0.0055 ± 0.0078	0.0245 ± 0.0092	0 ± 0.017	0.013 ± 0.0014	0.003 ± 0.011	0.008 ± 0.0085	-0.0055 ± 0.019	0.059 ± 0.023	-0.012 ± 0.02	0.0015 ± 0.015	0.0065 ± 0.0035	0.0045 ± 0.0092	-0.005 ± 0.0028	-0.0085 ± 0.0064	-0.0155 ± 0.00071	-0.0045 ± 0.0078	0.003 ± 0.023	-0.004 ± 0.0014	-0.0005 ± 0.025	-0.013 ± 0.017
SAg:CD40	-0.0305 ± 0.042	0.007 ± 0.0042	0.013 ± 0.058	0.013 ± 0.011	-0.005 ± 0.023	-0.012 ± 0.0014	-0.0225 ± 0.022	0.0095 ± 0.0092	-0.0015 ± 0.00071	0.0005 ± 0.00071	-0.012 ± 0.017	-0.004 ± 0.013	-0.001 ± 0.04	-0.019 ± 0.013	-0.017 ± 0.0014	-0.0555 ± 0.077	-0.0285 ± 0.0078	-0.019 ± 0.031	-0.0195 ± 0.021	0.001 ± 0.0085	-0.0335 ± 0.053	-0.0075 ± 0.0064	-0.024 ± 0.011	-0.0445 ± 0.036	-0.001 ± 0.0028	0.0065 ± 0.016	-0.0145 ± 0.012	-0.0095 ± 0.021	0.0115 ± 0.025
SAg:CD62E/E-Selectin	0.017 ± 0.0071	-0.005 ± 0.031	0.025 ± 0.014	-0.0155 ± 0.026	-0.0015 ± 0.036	-0.004 ± 0.033	-0.008 ± 0.052	-0.0025 ± 0.0078	0.0105 ± 0.011	0.009 ± 0.014	0.011 ± 0.013	-0.0165 ± 0.0078	0.058 ± 0.0099	0.036 ± 0.0014	0.022 ± 0.013	0.057 ± 0.0028	0.021 ± 0.0085	-0.005 ± 0.0014	-0.007 ± 0.04	-0.0045 ± 0.0078	-0.0245 ± 0.018	-0.0045 ± 0.005	-0.008 ± 0.0085	-0.001 ± 0.024	0.021 ± 0.047	0.001 ± 0.018	-0.01 ± 0.023	0.0195 ± 0.005	0.01 ± 0.042

Source: the supplement of paper PMC10331698
